Results: patent US20240058268A1, “METHODS OF TREATING SKIN DISORDERS” (priority 2021, published 2024)

Tested on: acne papule biopsies, Ingenuity Canonical Pathways
Experiment: Ingenuity Pathway Analysis, canonical pathways of the trifarotene signature
Assay type: in vivo, human
Conditions: trifarotene treated area (day 27) vs papule before treatment

SMILES: CC(C)(C)c1cc(-c2cc(-c3ccc(C(=O)O)cc3)ccc2OCCO)ccc1N1CCCC1 [Trifarotene, 3″-tert-Butyl-4′-(2-hydroxy-ethoxy)-4″-pyrrolidin-1-yl-[1,1′,3′,1″ ]terphenyl-4-carboxylic acid]
- z score Trifarotene Profile: Acute Phase Response Signaling: −3.638
- z score Trifarotene Profile: Complement System: −1.897
- z score Trifarotene Profile: Crosstalk between Dendritic Cells and Natural Killer Cells: −4.123
- z score Trifarotene Profile: Dendritic Cell Maturation: −4.899
- z score Trifarotene Profile: Fcγ Receptor-mediated Phagocytosis in Macrophages and Monocytes: −3.464
- z score Trifarotene Profile: HMGB1 Signaling: −3.606
- z score Trifarotene Profile: HOTAIR Regulatory Pathway: −2.324
- z score Trifarotene Profile: Hepatic Fibrosis Signaling Pathway: −3.889
- z score Trifarotene Profile: IL-6 Signaling: −3.051
- z score Trifarotene Profile: IL-17A Signaling in Airway Cells: −2.646
- z score Trifarotene Profile: Inhibition of Matrix Metalloproteases: 1.897
- z score Trifarotene Profile: LPS/IL-1 Mediated Inhibition of RXR Function: −1.667
- z score Trifarotene Profile: LXR/RXR Activation: 1.46
- z score Trifarotene Profile: Leukocyte Extravasation Signaling: −3.838
- z score Trifarotene Profile: NAD biosynthesis II (from tryptophan): −2
- z score Trifarotene Profile: Natural Killer Cell Signaling: −3.545
- z score Trifarotene Profile: Osteoarthritis Pathway: −3.273
- z score Trifarotene Profile: Production of Nitric Oxide and Reactive Oxygen Species in Macrophages: −3.9
- z score Trifarotene Profile: Role of IL-17F in Allergic Inflammatory Airway Diseases: −2.53
- z score Trifarotene Profile: Role of NFAT in Regulation of the Immune Response: −3.771
- z score Trifarotene Profile: Role of Pattern Recognition Receptors in Recognition of Bacteria and Viruses: −3.873
- z score Trifarotene Profile: Systemic Lupus Erythematosus In B Cell Signaling Pathway: −2.294
- z score Trifarotene Profile: TREM1 Signaling: −4.796
- z score Trifarotene Profile: Th1 Pathway: −2.84
- z score Trifarotene Profile: Th2 Pathway: −1.807
- z score Trifarotene Profile: Tryptophan Degradation to 2-amino-3-carboxymuconate Semialdehyde: −2
